# Measured values as given in patent US10323036B2 (Nimbus Lakshmi, Inc., priority 2016, dated 2019).
# By UniProt entry, the sequences of proteins in these tests, tags left out. Residues count along the entry.
# UniProt O60674, 808-1132: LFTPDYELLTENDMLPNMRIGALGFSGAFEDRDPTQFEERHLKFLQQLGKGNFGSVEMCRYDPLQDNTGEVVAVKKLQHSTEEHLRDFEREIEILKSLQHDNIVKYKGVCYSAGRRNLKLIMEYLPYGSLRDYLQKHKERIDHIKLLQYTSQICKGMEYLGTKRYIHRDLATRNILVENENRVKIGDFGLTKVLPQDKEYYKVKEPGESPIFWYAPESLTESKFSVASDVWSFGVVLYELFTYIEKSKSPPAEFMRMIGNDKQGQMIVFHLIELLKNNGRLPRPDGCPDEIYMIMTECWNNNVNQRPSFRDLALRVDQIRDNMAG
# At least one compound was matched to its structure with a doubt left.
# Target: JAK2 JH1 kinase (Homo sapiens (Human), UniProt O60674)
# Assay: JAK2 Radioactive Kinase Assay
# Format: biochemical
# Details: ATP at 10 μM
# Protocol: Peptide substrate, [KKSRGDYMTMQIG (SEQ ID NO: 2)], (20 μM) is prepared in reaction buffer (20 mM Hepes pH 7.5, 10 mM MgCl2, 1 mM EGTA, 0.02% Brij35, 0.02 mg/mL BSA, […], 2 mM DTT, 1% DMSO. TYK2 (Invitrogen) kinase is added, followed by compounds in DMSO. 33PATP is added to initiate the reaction in ATP at 10 μM. Kinase reaction is incubated for 120 min at room temp and reactions are spotted onto P81 ion exchange paper (Whatman #3698-915), and then washed extensively in 0.75% phosphoric acid, prior to reading the radioactivity counts. For JAK2 (Invitrogen) kinase assay the peptide substrate poly[Glu:Tyr] (4:1), 0.2 mg/ml is used, in the reaction carried out the same as for TYK2.
compound,measurement,value
"COc1c(Nc2cc(NC(=O)C3CC3)ncc2-c2ncc(Cl)s2)cccc1-c1nnn(C)n1 [VIII-1, N-(5-(5-chlorothiazol-2-yl)-4-((2-methoxy-3-(2-methyl-2H-tetrazol-5-yl)phenyl)amino)pyridin-2-yl)cyclopropanecarboxamide]",inhibitory activity against JAK2 JH1 kinase function,no detectable inhibitory activity
